Publication PMC8070143

Molecular target: T1, hexokinase 2 (HK2) (human (endogenous in A2780)) (UniProt P52789)
T1 sequence: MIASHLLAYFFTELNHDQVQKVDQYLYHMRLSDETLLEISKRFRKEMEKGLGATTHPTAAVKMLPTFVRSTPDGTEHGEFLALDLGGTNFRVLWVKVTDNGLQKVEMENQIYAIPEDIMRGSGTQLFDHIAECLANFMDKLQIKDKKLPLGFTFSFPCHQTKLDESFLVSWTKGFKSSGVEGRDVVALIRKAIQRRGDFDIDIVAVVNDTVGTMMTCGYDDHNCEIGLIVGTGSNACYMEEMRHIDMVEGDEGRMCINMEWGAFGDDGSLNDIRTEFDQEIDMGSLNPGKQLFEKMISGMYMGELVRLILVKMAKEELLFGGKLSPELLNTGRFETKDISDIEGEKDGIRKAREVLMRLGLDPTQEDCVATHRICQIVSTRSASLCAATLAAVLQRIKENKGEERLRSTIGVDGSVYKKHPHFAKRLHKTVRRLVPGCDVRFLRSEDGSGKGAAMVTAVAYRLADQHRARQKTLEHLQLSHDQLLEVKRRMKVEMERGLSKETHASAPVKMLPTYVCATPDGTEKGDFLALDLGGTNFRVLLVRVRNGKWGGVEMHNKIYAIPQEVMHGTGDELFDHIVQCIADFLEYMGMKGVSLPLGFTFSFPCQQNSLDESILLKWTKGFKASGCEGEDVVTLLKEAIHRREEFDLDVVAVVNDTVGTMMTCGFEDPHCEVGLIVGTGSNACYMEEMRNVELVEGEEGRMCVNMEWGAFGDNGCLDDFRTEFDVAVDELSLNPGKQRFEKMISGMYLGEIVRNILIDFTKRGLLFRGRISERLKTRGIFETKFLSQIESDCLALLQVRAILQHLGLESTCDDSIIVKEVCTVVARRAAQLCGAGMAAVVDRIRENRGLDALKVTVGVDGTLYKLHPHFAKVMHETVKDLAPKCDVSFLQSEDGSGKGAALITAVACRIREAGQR
Experiment: co-IP; A2780 cells transfected with wt-p62 or ΔUBA-p62, cisplatin 5 μg/mL 12 h; NP40 lysis buffer; immunoprecipitation with anti-HK2 and protein G agarose, blot anti-p62 and anti-HK2

binding: binds
Substance: UBA domain truncated mutant p62 (pcDNA3.1-ΔUBA-p62) (domain or fragment)

Results are given in words; binding and its absence hold for the method and conditions named. Binding seen in cells or lysates may run through a third protein. A result given as binding can be weak or reduced; the word gives no strength.
